Mtb cholesterol medium: 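Growth of Mycobacterium tuberculosis over 4 days (cholesterol / DPPC medium with tyloxapol); the read-out is not stated. Tested at 50 µM. Direction is inferred from retests: higher values go with more growth inhibition. Of about 69,000 compounds tested this way, about 370 (0.54%) reached 50% or more in at least one test.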
Mtb glucose medium: 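Phenotypic screen: M. tuberculosis growth, glucose 7H9 medium, 3 days; the read-out is not stated. Compounds at 50 µM. Direction is inferred from retests: higher values go with more growth inhibition. Size under these conditions: about 69,000 compounds, about 760 of them at 50% or above in at least one test.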

Each number is a percent effect as filed.
How 0% and 100% were set is not recorded. Most values in the screen are low, and negative values occur.
This is an unselected part of the compounds tested.
Two or more numbers in one place are separate tests of the same structure; such repeats can differ widely.

* COC1CCCN(C(=O)Nc2nc(C)n(C)n2)C1 (configuration not stated) | Mtb cholesterol medium: 1.968%; Mtb glucose medium: 13.26%
* CSC(CNS(C)(=O)=O)c1cccc(Cl)c1 (configuration not stated) | Mtb cholesterol medium: -18.63%; Mtb glucose medium: -2.454%
* Cc1ccc(C)c(C(C)NC(=O)N2CCC(n3cncn3)CC2)c1 (configuration not stated) | Mtb cholesterol medium: -1.138%; Mtb glucose medium: -0.1483% & -30.33%
* NCC1(c2cccc(C(F)(F)F)c2)CC1 | Mtb cholesterol medium: -16.42%; Mtb glucose medium: -8.493%
* Cc1ccc(C2(CN3CCCC3)CCNCC2)nc1 | Mtb cholesterol medium: 22.99%; Mtb glucose medium: -15.45%
* CN1CCC(Cc2cc(Nc3ccccn3)ncn2)CC1 | Mtb cholesterol medium: -13.94%; Mtb glucose medium: -29.52%
* O=C1CN(S(=O)(=O)CC(F)(F)F)CC(O)CN1CCCc1ccccc1 (configuration not stated) | Mtb cholesterol medium: 3.315%; Mtb glucose medium: 14.26%
* COc1ccc(CN2CCC3(CCCN(C)C3=O)C2)c(OC)c1C (configuration not stated) | Mtb cholesterol medium: 9.499%; Mtb glucose medium: 7.018% & 8.407%
* Cc1nnc(CNC(=O)C2CSCCC(=O)N2)o1 (configuration not stated) | Mtb cholesterol medium: 2.255%; Mtb glucose medium: -25.76%
* O=C1CC(NCc2ccc(Cl)s2)CN1Cc1cccc(F)c1 (configuration not stated) | Mtb cholesterol medium: 1.685%; Mtb glucose medium: -4.936%
* Cc1ccc(C)c(S(=O)(=O)NCCOc2ccc3nnc(C)n3n2)c1 | Mtb cholesterol medium: -3.911%; Mtb glucose medium: -17.16%
* CC(C)N1CCC(c2cnc(-c3cncnc3)cn2)CC1 | Mtb cholesterol medium: -5.568% & -13.54%; Mtb glucose medium: -30.11%
* CC(C)N1CCC(CC(=O)NC(C(=O)O)c2ccc(F)cc2)CC1 (configuration not stated) | Mtb cholesterol medium: -2.02%; Mtb glucose medium: 8.399%
* Cc1cc(CNC(=O)c2cc(NC(=O)C(C)C)ccc2Cl)no1 | Mtb cholesterol medium: -22.55%; Mtb glucose medium: -25.5% & -8.697%
* CN1CCN(C(=O)c2occc2CN2C(=O)Cc3ccccc32)CC1 | Mtb cholesterol medium: -15.35%; Mtb glucose medium: 26.53%
* COc1cccc2cc(CNC(=O)N3CCC(N4CCCC4)C3)oc12 (configuration not stated) | Mtb cholesterol medium: -2.382%; Mtb glucose medium: -14.51%
* N#Cc1cccc(CN2C(=O)C3(CCNCC3)Nc3ccccc32)c1 | Mtb cholesterol medium: -6.483%; Mtb glucose medium: 27.08%
* O=C(CN1CCOCS1(=O)=O)NCc1ccccc1 | Mtb cholesterol medium: -43.73%; Mtb glucose medium: 5.466%
* O=C(c1cnc2n1CCCC2)N1CCCC1 | Mtb cholesterol medium: 7.998%; Mtb glucose medium: 27.64%
* CC(C)N1CCN(S(=O)(=O)c2ncn(C)c2Cl)CC1 | Mtb cholesterol medium: 1.194%; Mtb glucose medium: -5.238% & 12.13%
* Cc1ncsc1CCN(C)C(=O)CN1CC2(CCCC2)CC1=O | Mtb cholesterol medium: 15.5%; Mtb glucose medium: 0.9979% & -2.915%
* CCCc1nc(CNc2cccc(C(=O)N3CCCC(O)C3)c2)no1 (configuration not stated) | Mtb cholesterol medium: -1.223%; Mtb glucose medium: 9.852%
* N#Cc1cccc(N2CC3(CCN(C(=O)c4ccnnc4)C3)CC2=O)c1 (configuration not stated) | Mtb cholesterol medium: -35.77%; Mtb glucose medium: -29.54%
* Cn1nc(Br)c2c(NCCCS(N)(=O)=O)ncnc21 | Mtb cholesterol medium: -21.77%; Mtb glucose medium: -0.7584%
* [H][C@@]12CCN(C(=O)c3cscn3)[C@]1([H])CN(C(=O)c1ccsc1)C2 | Mtb cholesterol medium: -10.44%; Mtb glucose medium: -30.62%
* O=C(NCCOc1ccccc1)NCC(O)c1cccs1 (configuration not stated) | Mtb cholesterol medium: 44.81%; Mtb glucose medium: -2.699%
* C[C@@H]1CN(c2ccc(Cl)cn2)CC[C@@]1(O)C1CCOCC1 | Mtb cholesterol medium: 13.1%; Mtb glucose medium: 1.939%
* CN(CCc1cccs1)C(=O)Nc1cccc(S(C)(=O)=O)c1 | Mtb cholesterol medium: 3.03%; Mtb glucose medium: -11.25%
* Cc1cnn(C2CCCN(C(=O)CCCOc3ccccc3F)C2)c1 (configuration not stated) | Mtb cholesterol medium: 3.136%; Mtb glucose medium: 16.35%
* CCn1nc(CC(C)C)cc1C(=O)N1CC[C@@H](O)C1 | Mtb cholesterol medium: 5.647%; Mtb glucose medium: 3.101%

Repeated from the top, 2 entries:

Compound,Mtb cholesterol medium,Mtb glucose medium
COC1CCCN(C(=O)Nc2nc(C)n(C)n2)C1 (configuration not stated),1.968,13.26
CSC(CNS(C)(=O)=O)c1cccc(Cl)c1 (configuration not stated),-18.63,-2.454

The values are deposited in ChEMBL (CHEMBL3988442, “University of Dundee, Small-Polar-MMV Screening Library” (2021)).